From paper PMC7455564
These are yes or no findings as the source states them, for the method shown. For some of these results: In cells and extracts the contact can be indirect. Some entries that bind do so weakly or less than the wild type. For some of these results: Sequences can lack the tags named with a protein. Values belong to the molecule of their own block, whether it stands above or below them.

Chains of the proteins cited; added tags and fusions are not shown.
UniProt P09874: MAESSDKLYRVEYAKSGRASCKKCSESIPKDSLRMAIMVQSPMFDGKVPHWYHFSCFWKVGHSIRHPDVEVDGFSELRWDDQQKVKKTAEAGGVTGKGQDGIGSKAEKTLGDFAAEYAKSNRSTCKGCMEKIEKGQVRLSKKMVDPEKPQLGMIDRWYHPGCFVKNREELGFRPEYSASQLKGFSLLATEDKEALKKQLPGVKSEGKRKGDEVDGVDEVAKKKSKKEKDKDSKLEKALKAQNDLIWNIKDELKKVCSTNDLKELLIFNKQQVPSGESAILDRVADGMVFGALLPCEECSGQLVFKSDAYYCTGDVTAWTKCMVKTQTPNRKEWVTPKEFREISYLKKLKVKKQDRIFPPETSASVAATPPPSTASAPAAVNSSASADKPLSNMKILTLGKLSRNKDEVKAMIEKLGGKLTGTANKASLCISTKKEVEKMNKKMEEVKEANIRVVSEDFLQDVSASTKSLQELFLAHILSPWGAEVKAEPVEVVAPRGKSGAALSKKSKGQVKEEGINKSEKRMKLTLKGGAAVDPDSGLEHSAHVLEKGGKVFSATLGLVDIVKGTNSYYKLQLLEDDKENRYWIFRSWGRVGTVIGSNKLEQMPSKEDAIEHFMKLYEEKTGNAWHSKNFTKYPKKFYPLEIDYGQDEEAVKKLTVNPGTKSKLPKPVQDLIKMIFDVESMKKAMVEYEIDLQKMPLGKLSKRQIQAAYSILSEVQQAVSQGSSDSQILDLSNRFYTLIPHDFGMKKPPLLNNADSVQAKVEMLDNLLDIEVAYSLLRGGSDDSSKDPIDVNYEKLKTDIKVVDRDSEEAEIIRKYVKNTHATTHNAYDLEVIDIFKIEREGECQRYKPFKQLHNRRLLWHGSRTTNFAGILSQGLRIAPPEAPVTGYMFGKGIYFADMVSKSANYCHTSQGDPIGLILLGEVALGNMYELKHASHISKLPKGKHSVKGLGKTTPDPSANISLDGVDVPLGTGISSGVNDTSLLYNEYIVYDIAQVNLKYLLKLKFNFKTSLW

Columns and labels:
[1] = molecular target: T1, XRN2 (endogenous, HeLa) (human (endogenous in HeLa)) (UniProt Q9H0D6); experiment: SEC; gel filtration chromatography of nuclease-treated HeLa whole cell lysate; fractions analysed by Western blot; co-elution in fractions #24–29
T1 sequence: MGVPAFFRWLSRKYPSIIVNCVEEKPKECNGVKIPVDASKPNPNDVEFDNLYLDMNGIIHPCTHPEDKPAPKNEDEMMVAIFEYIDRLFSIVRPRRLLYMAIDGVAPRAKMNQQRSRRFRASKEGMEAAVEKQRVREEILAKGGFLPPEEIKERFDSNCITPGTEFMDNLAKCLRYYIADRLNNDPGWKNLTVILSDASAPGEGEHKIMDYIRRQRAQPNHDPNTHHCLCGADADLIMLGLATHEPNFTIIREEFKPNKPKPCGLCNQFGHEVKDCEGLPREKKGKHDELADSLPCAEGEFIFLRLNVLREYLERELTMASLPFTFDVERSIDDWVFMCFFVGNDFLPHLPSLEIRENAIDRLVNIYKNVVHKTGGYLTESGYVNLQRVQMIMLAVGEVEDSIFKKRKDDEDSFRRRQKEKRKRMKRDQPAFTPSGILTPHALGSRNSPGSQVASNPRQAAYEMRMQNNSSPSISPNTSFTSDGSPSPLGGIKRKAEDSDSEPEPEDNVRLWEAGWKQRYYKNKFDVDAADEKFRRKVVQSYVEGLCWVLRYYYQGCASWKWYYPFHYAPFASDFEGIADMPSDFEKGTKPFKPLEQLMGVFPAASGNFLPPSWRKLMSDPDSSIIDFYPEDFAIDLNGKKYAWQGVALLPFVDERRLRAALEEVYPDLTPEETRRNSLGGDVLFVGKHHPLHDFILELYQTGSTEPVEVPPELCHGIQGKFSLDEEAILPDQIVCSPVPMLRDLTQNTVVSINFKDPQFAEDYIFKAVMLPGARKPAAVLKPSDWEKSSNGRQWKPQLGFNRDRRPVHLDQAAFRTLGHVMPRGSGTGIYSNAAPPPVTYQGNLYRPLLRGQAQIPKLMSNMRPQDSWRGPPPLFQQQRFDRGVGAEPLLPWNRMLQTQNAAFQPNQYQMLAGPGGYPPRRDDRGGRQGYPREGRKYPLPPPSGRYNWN

[2] = molecular target: T2, recombinant XRN2 (purified) (human) (UniProt Q9H0D6); experiment: co-IP; purified XRN2 and Flag-PARP1 (5 µg each), IP with anti-XRN2 antibody, A/G plus agarose beads, overnight at 4 °C; beads as control; Western blot; both purified
T2 sequence: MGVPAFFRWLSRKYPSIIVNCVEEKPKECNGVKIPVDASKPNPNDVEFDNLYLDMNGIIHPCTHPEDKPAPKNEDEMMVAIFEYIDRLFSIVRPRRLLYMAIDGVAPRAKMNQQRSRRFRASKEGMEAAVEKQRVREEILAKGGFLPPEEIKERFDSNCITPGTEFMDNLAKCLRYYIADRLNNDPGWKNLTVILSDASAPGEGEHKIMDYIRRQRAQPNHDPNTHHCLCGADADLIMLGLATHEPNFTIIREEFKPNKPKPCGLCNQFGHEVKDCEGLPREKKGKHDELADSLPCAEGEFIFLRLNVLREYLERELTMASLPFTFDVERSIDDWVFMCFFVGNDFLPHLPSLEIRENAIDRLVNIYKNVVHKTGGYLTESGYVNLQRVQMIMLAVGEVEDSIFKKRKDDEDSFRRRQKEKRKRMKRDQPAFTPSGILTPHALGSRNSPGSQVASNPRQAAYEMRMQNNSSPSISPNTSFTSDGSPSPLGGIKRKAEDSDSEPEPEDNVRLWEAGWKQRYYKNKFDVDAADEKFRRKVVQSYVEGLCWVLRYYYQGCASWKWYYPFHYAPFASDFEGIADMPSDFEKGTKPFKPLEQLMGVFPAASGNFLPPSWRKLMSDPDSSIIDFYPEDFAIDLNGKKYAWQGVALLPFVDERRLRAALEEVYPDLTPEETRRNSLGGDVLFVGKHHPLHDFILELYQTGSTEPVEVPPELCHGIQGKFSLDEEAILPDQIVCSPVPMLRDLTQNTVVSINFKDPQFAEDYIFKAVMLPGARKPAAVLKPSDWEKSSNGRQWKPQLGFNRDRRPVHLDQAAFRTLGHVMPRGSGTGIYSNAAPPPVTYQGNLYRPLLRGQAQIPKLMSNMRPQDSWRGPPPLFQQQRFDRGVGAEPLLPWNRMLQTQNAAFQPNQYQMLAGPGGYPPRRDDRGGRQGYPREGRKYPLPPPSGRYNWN

[3] = molecular target: T3, TAP-XRN2 (5′-3′-exoribonuclease 2 with a tandem affinity purification tag) (human) (UniProt Q9H0D6); experiment: co-IP; whole-cell lysate of HEK 293 T TAP-XRN2 cells in 1× TNE buffer (100 mM Tris–HCl pH 7.5, 150 mM NaCl, 0.1 mM EDTA, 0.1% NP-40), ~1 mg protein, 10 µg anti-XRN2 antibodies, A/G plus agarose beads, overnight at 4 °C; beads without antibody as control; Western blot
T3 sequence: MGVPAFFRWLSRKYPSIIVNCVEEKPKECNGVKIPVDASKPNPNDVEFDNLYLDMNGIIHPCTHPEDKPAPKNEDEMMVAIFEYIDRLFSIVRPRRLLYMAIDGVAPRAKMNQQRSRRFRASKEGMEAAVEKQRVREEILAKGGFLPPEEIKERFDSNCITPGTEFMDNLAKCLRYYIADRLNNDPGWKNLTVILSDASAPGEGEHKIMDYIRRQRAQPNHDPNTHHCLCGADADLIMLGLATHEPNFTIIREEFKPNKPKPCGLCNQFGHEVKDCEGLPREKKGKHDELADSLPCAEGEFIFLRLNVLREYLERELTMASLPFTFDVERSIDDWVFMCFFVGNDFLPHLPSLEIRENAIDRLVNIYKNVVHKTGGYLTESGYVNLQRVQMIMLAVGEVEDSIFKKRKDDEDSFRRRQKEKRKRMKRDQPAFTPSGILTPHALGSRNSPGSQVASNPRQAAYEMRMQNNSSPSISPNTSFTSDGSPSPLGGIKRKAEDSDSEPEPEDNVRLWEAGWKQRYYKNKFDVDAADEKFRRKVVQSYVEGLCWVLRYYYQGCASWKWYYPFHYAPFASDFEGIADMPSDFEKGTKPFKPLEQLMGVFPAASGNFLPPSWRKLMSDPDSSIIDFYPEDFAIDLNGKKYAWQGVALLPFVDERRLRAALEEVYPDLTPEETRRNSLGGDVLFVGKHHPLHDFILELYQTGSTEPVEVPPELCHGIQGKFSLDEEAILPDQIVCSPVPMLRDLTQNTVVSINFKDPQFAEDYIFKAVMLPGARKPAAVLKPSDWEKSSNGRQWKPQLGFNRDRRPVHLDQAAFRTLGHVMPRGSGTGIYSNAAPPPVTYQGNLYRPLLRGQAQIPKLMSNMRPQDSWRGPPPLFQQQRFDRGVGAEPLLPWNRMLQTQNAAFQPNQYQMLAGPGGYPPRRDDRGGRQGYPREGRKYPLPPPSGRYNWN

[4] = molecular target: recombinant Flag-PARP1 (purified) (UniProt P09874); experiment: co-IP; purified XRN2 and Flag-PARP1 (5 µg each), IP with anti-PARP1 antibody, A/G plus agarose beads, overnight at 4 °C; beads as control; Western blot; both purified

binding [1]: binds
Molecule: PARP1 (endogenous, HeLa) (from UniProt P09874 1-1014)

binding [2]: binds
Molecule: recombinant Flag-PARP1 (purified) (from UniProt P09874 1-1014)

binding [3]: binds
B1: NONO (p54(nrb)) (protein, UniProt Q15233 1-471)
chain: MQSNKTFNLEKQNHTPRKHHQHHHQQQHHQQQQQQPPPPPIPANGQQASSQNEGLTIDLKNFRKPGEKTFTQRSRLFVGNLPPDITEEEMRKLFEKYGKAGEVFIHKDKGFGFIRLETRTLAEIAKVELDNMPLRGKQLRVRFACHSASLTVRNLPQYVSNELLEEAFSVFGQVERAVVIVDDRGRPSGKGIVEFSGKPAARKALDRCSEGSFLLTTFPRPVTVEPMDQLDDEEGLPEKLVIKNQQFHKEREQPPRFAQPGSFEYEYAMRWKALIEMEKQQQDQVDRNIKEAREKLEMEMEAARHEHQVMLMRQDLMRRQEELRRMEELHNQEVQKRKQLELRQEEERRRREEEMRRQQEEMMRRQQEGFKGTFPDAREQEIRMGQMAMGGAMGINNRGAMPPAPVPAGTPAPPGPATMMPDGTLGLTPPTTERFGQAATMEGIGAIGGTPPAFNRAAPGAEFAPNKRRRY

binding [4]: binds
B2: recombinant XRN2 (purified) (protein, UniProt Q9H0D6 1-950)
chain: MGVPAFFRWLSRKYPSIIVNCVEEKPKECNGVKIPVDASKPNPNDVEFDNLYLDMNGIIHPCTHPEDKPAPKNEDEMMVAIFEYIDRLFSIVRPRRLLYMAIDGVAPRAKMNQQRSRRFRASKEGMEAAVEKQRVREEILAKGGFLPPEEIKERFDSNCITPGTEFMDNLAKCLRYYIADRLNNDPGWKNLTVILSDASAPGEGEHKIMDYIRRQRAQPNHDPNTHHCLCGADADLIMLGLATHEPNFTIIREEFKPNKPKPCGLCNQFGHEVKDCEGLPREKKGKHDELADSLPCAEGEFIFLRLNVLREYLERELTMASLPFTFDVERSIDDWVFMCFFVGNDFLPHLPSLEIRENAIDRLVNIYKNVVHKTGGYLTESGYVNLQRVQMIMLAVGEVEDSIFKKRKDDEDSFRRRQKEKRKRMKRDQPAFTPSGILTPHALGSRNSPGSQVASNPRQAAYEMRMQNNSSPSISPNTSFTSDGSPSPLGGIKRKAEDSDSEPEPEDNVRLWEAGWKQRYYKNKFDVDAADEKFRRKVVQSYVEGLCWVLRYYYQGCASWKWYYPFHYAPFASDFEGIADMPSDFEKGTKPFKPLEQLMGVFPAASGNFLPPSWRKLMSDPDSSIIDFYPEDFAIDLNGKKYAWQGVALLPFVDERRLRAALEEVYPDLTPEETRRNSLGGDVLFVGKHHPLHDFILELYQTGSTEPVEVPPELCHGIQGKFSLDEEAILPDQIVCSPVPMLRDLTQNTVVSINFKDPQFAEDYIFKAVMLPGARKPAAVLKPSDWEKSSNGRQWKPQLGFNRDRRPVHLDQAAFRTLGHVMPRGSGTGIYSNAAPPPVTYQGNLYRPLLRGQAQIPKLMSNMRPQDSWRGPPPLFQQQRFDRGVGAEPLLPWNRMLQTQNAAFQPNQYQMLAGPGGYPPRRDDRGGRQGYPREGRKYPLPPPSGRYNWN
